Over roughly 33,000 sequences, “E-score (-0.5 to 0.5)” has its median near -0.0014; the highest 2% begin near 0.25. The list shows a part of the results.
target: T1, Cad1 (UniProt P24813); assay: PBM E-score (8-mer binding enrichment) (E-score (-0.5 to 0.5)); higher = stronger / more preferred TF binding; conditions: protein concentration: 100 nM; construct: GST-full length
T1 sequence: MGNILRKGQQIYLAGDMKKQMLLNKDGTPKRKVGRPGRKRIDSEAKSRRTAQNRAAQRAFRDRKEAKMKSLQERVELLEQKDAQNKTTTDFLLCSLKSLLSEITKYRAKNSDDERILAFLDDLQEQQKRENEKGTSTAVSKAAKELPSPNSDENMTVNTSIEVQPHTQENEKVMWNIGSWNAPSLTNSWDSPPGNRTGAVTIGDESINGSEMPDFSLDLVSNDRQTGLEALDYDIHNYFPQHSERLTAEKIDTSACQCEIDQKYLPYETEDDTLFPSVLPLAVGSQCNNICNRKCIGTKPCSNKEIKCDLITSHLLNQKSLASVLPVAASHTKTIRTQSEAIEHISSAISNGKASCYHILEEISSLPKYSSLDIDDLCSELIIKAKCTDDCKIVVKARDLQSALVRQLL
Summary of the method: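 GST-tagged yeast TFs (full-length or DNA-binding domain) were made by PURExpress in vitro transcription/translation and applied at about 100-200 nM to universal all-10-mer Agilent arrays. The arrays were made double-stranded by primer extension, on fresh or once-stripped slides. Bound protein was detected with fluorescent anti-GST, and scans were normalised with masliner. Each ungapped eight-base word, pooled with its reverse complement, received an E-score (modified Wilcoxon-Mann-Whitney statistic) from the Universal PBM Analysis Suite.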

Sequence | PBM E-score
AACTTTTG | -0.0868
AATCTCGC | 0.129
CAGCATTA | 0.0931
AAGCACAA | -0.00896
CTAGCCAG | -0.161
ACGGCATA | 0.16
ACCTTTTG | -0.244
CTCCAGTC | -0.135
AGTGAGGG | -0.21
CGGAAACG | -0.0175
TCGAGCCA | -0.0683
ATCCACTC | 0.131
ATTAGCGC | 0.142
ACCCGCCT | -0.189
AACAGTTG | -0.134
AAACGTAG | -0.0438
AAGGACTC | -0.212
GGACTAGA | -0.0933
ACGCGAAT | 0.0579
TAAACGAA | 0.145
ACATGTAT | 0.204
CGCCCTCA | -0.168
CGCAAGCA | 0.0451
AGATGACC | -0.0755
ATGAAGGC | 0.0119

Part of the list above, tab-delimited.
Sequence	PBM E-score
CGGAAACG	-0.0175
TCGAGCCA	-0.0683
ATCCACTC	0.131

Additional entries

Sequence | PBM E-score
CTTAACCA | 0.00801
ACCGCAGG | -0.0366
CATGTGAC | -0.0736
AACATAGA | -0.0589
AACTTCTT | -0.00507
TGACATAA | 0.266
AAGGTAAA | 0.0977
CGCGTCGC | 0.13
ACCATTAT | -0.0874
AACAATCT | 0.0393
AGAAGTGG | -0.177
TATTAACA | 0.25
CACGATGG | -0.0616
AATGCGAG | 0.0951
AGTCGGTG | -0.0753
GCACCTAA | 0.0774
CACACCCC | -0.302
ACATACGT | -0.213
CTATTTCC | 0.184
CAGACTGA | 0.0467
CGCCTGAA | 0.0643
GAATTTAC | 0.184
ACAATGAC | -0.14
ATAGGTCA | 0.0484
AGGGGGTG | -0.374

Sequence | PBM E-score
ACGGGAAA | 0.00569
GACAAGGC | -0.0346
ACAGGCTG | -0.194
GCTCGAGC | 0.189
AATAACTG | 0.108
CCATATCC | -0.0374
AGGGCGAT | -0.132
CGTGCGAA | 0.036
GCCTTCGC | -0.124
ACCCAAAA | -0.0031
CAAGGCAA | -0.0882
GGTACGTA | -0.0233
AGCAGACT | 0.194
TATATACA | 0.209
ACCCGGCG | -0.12
GCCCTACC | 0.043
CCGCCGTC | 0.117
ATGGAGCA | -0.0452
GTTCAAGA | 0.0594
GCCTACCC | -0.112
ATCGGAAA | 0.141
GCGGCATA | 0.188
AACTCCTC | -0.267
CAGGCGAG | -0.123
AGGACATC | 0.179

Sequence | PBM E-score
TACTTACA | -0.0122
TAATGAAA | 0.238
ATGGTGGG | -0.171
CGCGCAGA | 0.287
ACTGAGCG | -0.124
GGCGTGAA | -0.0289
CAGCGGCA | -0.0412
GCGTATCA | 0.0932
AAGTCCAC | -0.195
AATCGGAC | 0.0467
CCACTGTA | -0.0112
GAATTGAA | 0.0547
CTAGCCTC | -0.195
ACCAGTGA | -0.00797
CGACTTGA | -0.0967
GGCTACAA | -0.0701
ACGAATGA | 0.104
TGACAGCA | 0.0838
ACGACGTG | 0.0005
CACACTAG | 0.043
CTGTGCTC | 0.167
GAACTCAA | -0.06
GCACTAAC | 0.0507
GAAAGGGA | -0.278
AGCGGCTG | -0.0714

Random excerpt: three entries already listed, in no set order.
Sequence | PBM E-score
CAGCGGCA | -0.0412
GAATTGAA | 0.0547
GAAAGGGA | -0.278

(list continues)

Sequence | PBM E-score
CACAGTCC | 0.0338
AATTTTGT | 0.143
AGCACGAC | -0.162
AATTCAGC | -0.0551
ATCCTGGC | 0.0259
TAAATACA | 0.0881
TCGTGAAA | 0.0207
GTGACAAA | 0.229
GGACCCGA | -0.166
AACCTTAG | -0.22
AACTCTCG | -0.0932
GGACTTTA | 0.0423
TGTGCTAA | 0.0827
AAATAATA | 0.248
AACGTGCT | -0.171
GCACCCGA | -0.0648
AGACTTAT | -0.082
CCCCGCCA | 0.104
AGTATGCG | -0.0369
CAGTTATG | 0.172
AGGCGTCG | -0.0234
AGCAGGGG | -0.258
ATGGTGCC | -0.101
ACCAACGG | -0.0928
AGCGGTTG | 0.0307

Sequence | PBM E-score
CGGCAGAC | -0.0811
ATTCGGTC | 0.0825
GAGACAGA | -0.0548
GGTGGGCA | -0.0317
CCACTACG | 0.0167
AAACGTCA | -0.123
ACGGACGC | -0.0868
ACCGCGCA | -0.0142
GAACGAGA | 0.162
GTTGGCCA | -0.256
CAACGCGA | 0.157
AGTATCAA | 0.113
CCGCTTCG | -0.194
AACAAGCA | -0.0911
CGGTTGGA | -0.167
CCGGCGCG | -0.0246
TATGTAAA | 0.148
ATCATCAG | -0.0783
ATTGAAAT | 0.248
AGATGGTG | -0.181
TTTACAAA | 0.177
ATTGCAGG | 0.128
GGAGAATA | 0.0961
ACCTCATG | -0.226
GCCGCAGC | -0.0694

Sequence | PBM E-score
GTAATTAC | 0.33
GTGTCCAA | 0.0583
ACCGTAGC | -0.199
CAGAAGCG | -0.155
CGTGCGGC | -0.146
GTTTTAAA | 0.139
GCGGGTGA | -0.0382
GATATTTA | 0.115
CGTCAACC | -0.125
TAGTTGCA | -0.05
ACGCTGGA | -0.0353
CTGTTATC | 0.0403
CAGGGAGG | -0.312
CCACGACA | 0.0688
GTTTGACA | 0.0662
CCCGCCGC | -0.0389
TGAAAGAA | 0.253
CTGCAGTA | -0.04
TCTAAAAA | -0.0235
ACCTTTTC | -0.0763
CATCACCA | 0.118
AAGGGGAG | -0.259
CGGGTAGA | 0.0106
ATTTGCGA | 0.0459
CCTCCACG | -0.0764

Shown comma-delimited: entries from further up
Sequence,PBM E-score
CGTCAACC,-0.125
TAGTTGCA,-0.05
ACGCTGGA,-0.0353
CTGTTATC,0.0403

Next part:

Sequence | PBM E-score
CCCCGTGC | -0.033
CCTTTATA | -0.188
ACATAACG | 0.12
ACCACTCC | -0.0374
ACAGGTAT | 0.0712
AGAAGATG | -0.127
AGCCTTTA | -0.0489
GTGCGAAC | -0.111
ATCGCGGA | 0.0704
CTACAGTC | -0.228
TACGACAA | 0.068
CGCGTACC | -0.0111
AAAAGAAT | 0.257
GACGCGAA | -0.0345
CCATGTTC | -0.0966
AGATCCGG | 0.00585
ACGATAGA | -0.0807
ACGCACGT | -0.179
ACGATCAC | 0.0762
ATGCTGGC | 0.0551
CGAAATTC | -0.0593
AAGTACCT | -0.0692
ACGCCGCG | 0.0407
TACGCGGA | -0.0177
AATAGCCC | -0.148

Sequence | PBM E-score
ATTGGTTA | 0.203
CGGAAATA | 0.23
AACTGCTT | 0.00568
CCCGAACA | 0.027
GGTTGCAA | 0.0552
AGAATGTA | -0.00484
GCCCAGCC | -0.0672
AAAACGGT | -0.0977
ATTTTGAC | 0.135
CTACCGAC | 0.00538
CTGAAACC | 0.0965
GCAAAACC | 0.0369
AAACAAAT | 0.113
AATCACAG | 0.0986
CAATTACG | 0.0074
ACTGATCC | 0.119
AACCACCC | -0.131
GACTATAA | -0.0277
CAGAACGG | -0.119

Source: the supplement of paper PMC3334620
